From the supplement of paper PMC8728848
This is one part of the list.

Assays:
Test in all cases: glycan array binding signal (z-score within array); higher = stronger binding
Conditions in all cases: glycan notation: IUPAC condensed, linker removed
[1] = target: Neu5Ac(a2-3)Gal(b1-4)GlcNAc(b1-2)[Neu5Ac(a2-3)Gal(b1-4)GlcNAc(b1-4)]Man(a1-3)[GlcNAc(b1-4)][Neu5Ac(a2-3)Gal(b1-4)GlcNAc(b1-2)[Neu5Ac(a2-3)Gal(b1-4)GlcNAc(b1-6)]Man(a1-6)]Man(b1-4)GlcNAc(b1-4)GlcNAc
How it was run: (§1)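 The binding signal is a Z-score computed within each array. Data were drawn from 3228 arrays in the Consortium for Functional Glycomics database, restricted to those with a known protein sequence. Scores were averaged over arrays of the same protein sequence at different concentrations or buffers, and over linkers, and negative values can be taken as non-binding.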

[2] = target: Neu5Ac(a2-3)Gal(b1-4)GlcNAc(b1-2)[Neu5Ac(a2-3)Gal(b1-4)GlcNAc(b1-4)]Man(a1-3)[GlcNAc(b1-4)][Neu5Ac(a2-3)Gal(b1-4)GlcNAc(b1-4)Man(a1-6)]Man(b1-4)GlcNAc(b1-4)GlcNAc
How it was run: as §1

[3] = target: Neu5Ac(a2-3)Gal(b1-4)GlcNAc(b1-2)[Neu5Ac(a2-3)Gal(b1-4)GlcNAc(b1-6)]Man(a1-6)[Neu5Ac(a2-3)Gal(b1-4)GlcNAc(b1-2)Man(a1-3)][GlcNAc(b1-4)]Man(b1-4)GlcNAc(b1-4)GlcNAc
How it was run: as §1

[4] = target: Neu5Ac(a2-3)Gal(b1-4)GlcNAc(b1-3)Gal
How it was run: as §1

[5] = target: Neu5Ac(a2-3)Gal(b1-4)GlcNAc(b1-3)Gal(b1-3)GlcNAc
How it was run: as §1

[6] = target: Neu5Ac(a2-3)Gal(b1-4)GlcNAc(b1-3)Gal(b1-4)GlcNAc
How it was run: as §1

[7] = target: Neu5Ac(a2-3)Gal(b1-4)GlcNAc(b1-3)Gal(b1-4)GlcNAc(b1-2)Man(a1-3)[Neu5Ac(a2-3)Gal(b1-4)GlcNAc(b1-3)Gal(b1-4)GlcNAc(b1-2)Man(a1-6)]Man(b1-4)GlcNAc(b1-4)GlcNAc
How it was run: as §1

[8] = target: Neu5Ac(a2-3)Gal(b1-4)GlcNAc(b1-3)Gal(b1-4)GlcNAc(b1-3)Gal(b1-4)GlcNAc
How it was run: as §1

[9] = target: Neu5Ac(a2-3)Gal(b1-4)GlcNAc(b1-3)Gal(b1-4)GlcNAc(b1-3)Gal(b1-4)GlcNAc(b1-2)Man(a1-3)[Neu5Ac(a2-3)Gal(b1-4)GlcNAc(b1-3)Gal(b1-4)GlcNAc(b1-3)Gal(b1-4)GlcNAc(b1-2)Man(a1-6)]GalNAc
How it was run: as §1

[10] = target: Neu5Ac(a2-3)Gal(b1-4)GlcNAc(b1-3)Gal(b1-4)GlcNAc(b1-3)GalNAc
How it was run: as §1

[11] = target: Neu5Ac(a2-3)Gal(b1-4)GlcNAc(b1-3)Gal(b1-4)GlcNAc(b1-3)[Neu5Ac(a2-3)Gal(b1-4)GlcNAc(b1-3)Gal(b1-4)GlcNAc(b1-6)]GalNAc
How it was run: as §1

[12] = target: Neu5Ac(a2-3)Gal(b1-4)GlcNAc(b1-3)Gal(b1-4)GlcNAc(b1-6)[Gal(b1-3)]GalNAc
How it was run: as §1

[13] = target: Neu5Ac(a2-3)Gal(b1-4)GlcNAc(b1-3)Gal(b1-4)[Fuc(a1-3)]GlcNAc
How it was run: as §1

[14] = target: Neu5Ac(a2-3)Gal(b1-4)GlcNAc(b1-3)GalNAc
How it was run: as §1

[15] = target: Neu5Ac(a2-3)Gal(b1-4)GlcNAc(b1-3)[Neu5Ac(a2-3)Gal(b1-4)GlcNAc(b1-6)]GalNAc
How it was run: as §1

[16] = target: Neu5Ac(a2-3)Gal(b1-4)GlcNAc(b1-6)GalNAc
How it was run: as §1

[17] = target: Neu5Ac(a2-3)Gal(b1-4)GlcNAc(b1-6)[Gal(b1-3)]GalNAc
How it was run: as §1

[18] = target: Neu5Ac(a2-3)Gal(b1-4)GlcNAc(b1-6)[Neu5Ac(a2-3)Gal(b1-3)]GalNAc
How it was run: as §1

[19] = target: Neu5Ac(a2-3)Gal(b1-4)GlcNAc6S
How it was run: as §1

[20] = target: Neu5Ac(a2-3)Gal(b1-4)[Fuc(a1-3)]GlcNAc
How it was run: as §1

[21] = target: Neu5Ac(a2-3)Gal(b1-4)[Fuc(a1-3)]GlcNAc(b1-2)Man
How it was run: as §1

[22] = target: Neu5Ac(a2-3)Gal(b1-4)[Fuc(a1-3)]GlcNAc(b1-3)Gal
How it was run: as §1

[23] = target: Neu5Ac(a2-3)Gal(b1-4)[Fuc(a1-3)]GlcNAc(b1-3)Gal(b1-4)GlcNAc
How it was run: as §1

[24] = target: Neu5Ac(a2-3)Gal(b1-4)[Fuc(a1-3)]GlcNAc(b1-3)Gal(b1-4)[Fuc(a1-3)]GlcNAc(b1-3)Gal(b1-4)[Fuc(a1-3)]GlcNAc
How it was run: as §1

[25] = target: Neu5Ac(a2-3)Gal(b1-4)[Fuc(a1-3)]GlcNAc(b1-3)GalNAc
How it was run: as §1

[26] = target: Neu5Ac(a2-3)Gal(b1-4)[Fuc(a1-3)]GlcNAc(b1-6)[Gal(b1-3)]GalNAc
How it was run: as §1

[27] = target: Neu5Ac(a2-3)Gal(b1-4)[Fuc(a1-3)]GlcNAc(b1-6)[Neu5Ac(a2-3)Gal(b1-3)]GalNAc
How it was run: as §1

[28] = target: Neu5Ac(a2-3)Gal(b1-4)[Fuc(a1-3)]GlcNAc6S
How it was run: as §1

[29] = target: Neu5Ac(a2-3)Gal6S(b1-4)GlcNAc
How it was run: as §1

[30] = target: Neu5Ac(a2-3)Gal6S(b1-4)[Fuc(a1-3)]GlcNAc
How it was run: as §1

[31] = target: Neu5Ac(a2-3)GalNAc
How it was run: as §1

[32] = target: Neu5Ac(a2-3)GalNAc(b1-4)GlcNAc
How it was run: as §1

[33] = target: Neu5Ac(a2-3)[GalNAc(b1-4)]Gal(b1-4)Glc
How it was run: as §1

[34] = target: Neu5Ac(a2-3)[GalNAc(b1-4)]Gal(b1-4)GlcNAc
How it was run: as §1

[35] = target: Neu5Ac(a2-3)[GalNAc(b1-4)]Gal(b1-4)GlcNAc(b1-3)GalNAc
How it was run: as §1

[36] = target: Neu5Ac(a2-3)[Neu5Ac(a2-6)]GalNAc
How it was run: as §1

[37] = target: Neu5Ac(a2-6)Gal
How it was run: as §1

B1: Nc3LysM-2 (protein)
chain: AHVLQARQSVSCDFATAANTGDTCASFAAAWGITEAAFAKLNPGVSCPGNLIAGSEYCVIGTVSTGAPTTTKAATTSTTPPTTTTTTKATTLSTSTTSVSPTGPSPQMPSITSTCNKFYQVQSGDGCWSIEQAQGVSASDFMAWNKAVDAQCDNLWLGYYVCVGVKGGSSPPPTTTTKPASSSAPTPQMPNTVSNCKKFHKVVSGDGCWAIEQAAGISASDFAKWNPYVDAACDNLWLGYYVCIGV
- glycan array binding signal (z-score) [1]: 1.16
- glycan array binding signal (z-score) [2]: -0.254
- glycan array binding signal (z-score) [3]: -0.022
- glycan array binding signal (z-score) [4]: 0.058
- glycan array binding signal (z-score) [5]: 1.52
- glycan array binding signal (z-score) [6]: 0.339
- glycan array binding signal (z-score) [7]: 4.26
- glycan array binding signal (z-score) [8]: 1.13
- glycan array binding signal (z-score) [9]: 0.871
- glycan array binding signal (z-score) [10]: 0.004
- glycan array binding signal (z-score) [11]: -0.674
- glycan array binding signal (z-score) [12]: 0.042
- glycan array binding signal (z-score) [13]: -0.71
- glycan array binding signal (z-score) [14]: -0.611
- glycan array binding signal (z-score) [15]: 0.138
- glycan array binding signal (z-score) [16]: 0.862
- glycan array binding signal (z-score) [17]: 1.15
- glycan array binding signal (z-score) [18]: -1.04
- glycan array binding signal (z-score) [19]: 1
- glycan array binding signal (z-score) [20]: -0.717
- glycan array binding signal (z-score) [21]: -0.075
- glycan array binding signal (z-score) [22]: 0.87
- glycan array binding signal (z-score) [23]: -0.195
- glycan array binding signal (z-score) [24]: 0.917
- glycan array binding signal (z-score) [25]: 1.6
- glycan array binding signal (z-score) [26]: 1.18
- glycan array binding signal (z-score) [27]: 2.08
- glycan array binding signal (z-score) [28]: -0.938
- glycan array binding signal (z-score) [29]: -0.155
- glycan array binding signal (z-score) [30]: -0.852
- glycan array binding signal (z-score) [31]: -1.24
- glycan array binding signal (z-score) [32]: -0.744
- glycan array binding signal (z-score) [33]: -0.861
- glycan array binding signal (z-score) [34]: -0.72
- glycan array binding signal (z-score) [35]: -1.35
- glycan array binding signal (z-score) [36]: 0.668
- glycan array binding signal (z-score) [37]: -0.616
